{"sequences": {"note": "Chains of the proteins cited; added tags and fusions are not shown. Lines headed by an entry give the natural chain unless they say otherwise; changes in a name come on top.", "UniProt Q9H668": "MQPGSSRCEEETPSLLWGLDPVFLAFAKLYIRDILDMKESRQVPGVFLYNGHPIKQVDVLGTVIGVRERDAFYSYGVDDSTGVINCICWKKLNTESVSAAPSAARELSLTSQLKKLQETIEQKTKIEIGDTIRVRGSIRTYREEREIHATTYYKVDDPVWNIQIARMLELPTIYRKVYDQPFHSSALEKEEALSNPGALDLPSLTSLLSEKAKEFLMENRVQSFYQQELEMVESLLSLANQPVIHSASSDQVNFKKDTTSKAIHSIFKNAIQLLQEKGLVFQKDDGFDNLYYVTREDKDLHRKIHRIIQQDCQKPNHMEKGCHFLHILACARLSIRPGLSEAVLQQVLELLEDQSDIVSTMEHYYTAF", "UniProt Q86WV5": "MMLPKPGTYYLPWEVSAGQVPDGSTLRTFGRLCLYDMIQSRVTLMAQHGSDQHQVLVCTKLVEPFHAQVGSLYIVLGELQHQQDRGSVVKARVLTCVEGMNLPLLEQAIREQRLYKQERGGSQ"}, "source": "paper PMC3691326", "key": {"[1]": {"molecular_target": "hStn1 (Homo sapiens) (UniProt Q9H668)", "assay": "fluorescence polarization", "conditions": "FP: 100 mM NaCl, 5 mM MgCl2, 1 mM DTT, 5% glycerol, 1 mg/mL BSA, 2.5 nM 6-FAM DNA, room temperature, pH not stated, recombinant protein, residues 1-368, single-stranded DNA"}, "[2]": {"molecular_target": "hTen1 (Homo sapiens) (UniProt Q86WV5)", "assay": "fluorescence polarization", "conditions": "slight shift only at >=15 uM protein, FP: 100 mM NaCl, 5 mM MgCl2, 1 mM DTT, 5% glycerol, 1 mg/mL BSA, 2.5 nM 6-FAM DNA, room temperature, pH not stated, recombinant protein, residues 1-123, single-stranded DNA"}}, "note": "A weaker result is weaker than the reference pair of the same experiment. For some of these results: The exact form of at least one protein or probe is not confirmed.", "data": [{"sequence": "TTAGGGTT [tel8]", "values": [{"measurement": "binding result", "setting": "[1]; too weak to determine Kd", "result": "binds more weakly"}]}, {"sequence": "TTAGGGTTAGGGTTAGGG [tel18]", "values": [{"measurement": "binding result", "setting": "[2]", "result": "binds more weakly"}]}, {"sequence": "TTAGGGTTAGGGTTAGGGTTAGGGTTAGGG [tel30]", "values": [{"measurement": "Kd", "setting": "[1]", "result": 200, "unit": "nM"}]}, {"sequence": "TTAGGGTTAGGG [tel12]", "values": [{"measurement": "binding result", "setting": "[2]; best visible probe", "result": "binds more weakly"}]}]}
